Values from PubChem BioAssay AID1259405 (NCATS, 2018).
In all, the deposit lists about 50,000 reagents; below is a random part of them. About 4,000 of them (8%) were called active. 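Mouse siRNA library applied to hamster cells; one well for each siRNA.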 A number with no mark means an inactive call. Reagents against one gene are numbered here.

Purpose: 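Knock-downs that lift recombinant protein yield in hamster ovary cells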 (primary screen)
Cells: Chinese hamster CHO-K1 ovary cells with stable secreted eGFP expression
Knock-down reagent: single siRNA against mouse genes, 0.8 pmol siRNA per well (2 µl of 400 nM stock)
Time to read-out: 3 days
Measured: 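Percent of the per-plate non-targeting control median for intracellular GFP per well by laser scanning cytometry and for cell viability by ATP luminescence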
Scale: GFP, % of control: higher = more GFP per well, higher productivity; viability (ATP), % of control: higher = more viable cells (more ATP)
Call rule: 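a knock-down is called active if GFP reaches 120% or more of non-targeting control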

The opening 4 records as a preview:
GFP, % of control | viability (ATP), % of control | gene symbol | reagent no.
93.1 | 83.8 | Or8u3 | 1
107 | 98.6 | Or8u3 | 2
67.7 | 58.7 | Or8u3 | 3
70.1 | 78.1 | Cacybp | 1

Results, from the start:
GFP, % of control | viability (ATP), % of control | gene symbol | reagent no.
93.1 | 83.8 | Or8u3 | 1
107 | 98.6 | Or8u3 | 2
67.7 | 58.7 | Or8u3 | 3
70.1 | 78.1 | Cacybp | 1
64.1 | 62.1 | Cacybp | 2
61.4 | 81.9 | Cacybp | 3
87.9 | 82.7 | Chd9 | 1
81.8 | 66 | Chd9 | 2
111 | 74.2 | Chd9 | 3
57 | 78.2 | Dennd11 | 1
84.8 | 91.9 | Dennd11 | 2
58.4 | 59.9 | Dennd11 | 3
73.2 | 36.3 | Mat2a | 1
71 | 100 | Mat2a | 2
119 | 86.5 | Mat2a | 3
80.4 | 76.4 | Vmn1r199 | 1
74.4 | 81.8 | Vmn1r199 | 2
97.7 | 114 | Vmn1r199 | 3
155 (active) | 127 | Ccnl2 | 1
68.3 | 52.1 | Ccnl2 | 2
97.6 | 111 | Ccnl2 | 3
98.5 | 93.1 | Rpp38 | 1
57 | 46.1 | Rpp38 | 2
118 | 56.5 | Rpp38 | 3
118 | 95.4 | Hcn2 | 1
122 (active) | 70.9 | Hcn2 | 2
55.4 | 32.1 | Hcn2 | 3
71.3 | 55.6 | Gtf2e1 | 1
100 | 91.9 | Gtf2e1 | 2
88.2 | 99.9 | Nsun4 | 1
59.9 | 75.3 | Nsun4 | 2
75 | 81.2 | Nsun4 | 3
54 | 58.8 | Fbxl22 | 1
25.1 | 28.4 | Fbxl22 | 2
92.4 | 82.1 | Fbxl22 | 3
